Measured values: the supplement of paper PMC12823440, “Inhibitors supercharge kinase turnover through native proteolytic circuits” (Nature, 2025)
Where a name gives a salt, the structure may show the parent alone. Some of the results follow. Hit calls seldom repeat between salt and free forms of one compound.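 Kinases, fused to nanoluciferase, were expressed in K562 cells; luminescence was measured every 4 h from 2 to 18 h as percent of control (DMSO = 100%, positive control = 0%). A time point is decreased if signal falls significantly (2 sigma). Hits were called by the authors by a rule that is not shown; the count of time points alone does not decide it.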

Amino acid sequences for entries named in this document (tags omitted). A change or cut given only in a name is not applied to a line headed by its entry.
UniProt Q9Y616: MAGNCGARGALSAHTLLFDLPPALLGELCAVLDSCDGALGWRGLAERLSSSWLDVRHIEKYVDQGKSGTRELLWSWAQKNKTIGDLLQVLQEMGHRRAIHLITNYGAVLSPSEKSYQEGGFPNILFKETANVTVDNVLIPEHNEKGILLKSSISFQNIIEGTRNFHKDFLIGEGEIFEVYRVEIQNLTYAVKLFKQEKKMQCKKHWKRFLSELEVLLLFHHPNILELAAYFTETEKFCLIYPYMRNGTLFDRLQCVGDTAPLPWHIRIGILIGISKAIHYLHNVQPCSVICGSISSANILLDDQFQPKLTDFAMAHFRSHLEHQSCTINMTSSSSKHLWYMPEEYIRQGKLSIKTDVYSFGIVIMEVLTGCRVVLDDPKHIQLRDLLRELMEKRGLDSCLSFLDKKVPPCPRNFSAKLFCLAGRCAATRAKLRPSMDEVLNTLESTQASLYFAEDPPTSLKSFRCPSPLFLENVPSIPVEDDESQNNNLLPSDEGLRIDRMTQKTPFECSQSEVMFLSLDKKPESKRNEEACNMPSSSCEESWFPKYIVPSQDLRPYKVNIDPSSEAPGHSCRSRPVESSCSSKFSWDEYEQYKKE
UniProt P23458: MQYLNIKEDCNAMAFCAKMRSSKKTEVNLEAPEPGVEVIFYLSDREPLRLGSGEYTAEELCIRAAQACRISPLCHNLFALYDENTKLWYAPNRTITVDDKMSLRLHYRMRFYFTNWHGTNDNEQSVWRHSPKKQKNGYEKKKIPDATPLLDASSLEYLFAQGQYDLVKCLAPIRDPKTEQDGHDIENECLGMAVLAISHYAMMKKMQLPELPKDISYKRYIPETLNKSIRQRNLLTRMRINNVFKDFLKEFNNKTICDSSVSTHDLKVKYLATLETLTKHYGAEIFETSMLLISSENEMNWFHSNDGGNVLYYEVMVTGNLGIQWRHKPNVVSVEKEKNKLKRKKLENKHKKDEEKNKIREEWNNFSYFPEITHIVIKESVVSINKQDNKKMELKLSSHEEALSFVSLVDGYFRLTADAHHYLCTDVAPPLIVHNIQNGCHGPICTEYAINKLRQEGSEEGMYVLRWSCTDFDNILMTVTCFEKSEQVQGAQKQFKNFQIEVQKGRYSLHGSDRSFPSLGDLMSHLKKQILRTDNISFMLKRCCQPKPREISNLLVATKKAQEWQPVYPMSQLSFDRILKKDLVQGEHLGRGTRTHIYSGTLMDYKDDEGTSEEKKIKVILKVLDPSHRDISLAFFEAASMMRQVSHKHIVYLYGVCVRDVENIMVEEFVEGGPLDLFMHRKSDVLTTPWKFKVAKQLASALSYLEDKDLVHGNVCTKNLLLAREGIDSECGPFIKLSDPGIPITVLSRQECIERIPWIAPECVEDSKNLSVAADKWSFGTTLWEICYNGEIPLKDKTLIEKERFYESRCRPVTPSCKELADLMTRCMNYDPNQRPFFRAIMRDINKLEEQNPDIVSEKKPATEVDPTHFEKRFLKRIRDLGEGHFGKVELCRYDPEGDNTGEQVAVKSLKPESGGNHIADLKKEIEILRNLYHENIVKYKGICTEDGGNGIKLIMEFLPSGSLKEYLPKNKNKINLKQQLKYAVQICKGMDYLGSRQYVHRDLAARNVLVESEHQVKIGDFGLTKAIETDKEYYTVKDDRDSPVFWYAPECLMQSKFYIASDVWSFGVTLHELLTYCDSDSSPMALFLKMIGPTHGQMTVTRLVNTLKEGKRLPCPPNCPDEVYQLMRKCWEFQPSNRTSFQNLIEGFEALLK
UniProt P06239: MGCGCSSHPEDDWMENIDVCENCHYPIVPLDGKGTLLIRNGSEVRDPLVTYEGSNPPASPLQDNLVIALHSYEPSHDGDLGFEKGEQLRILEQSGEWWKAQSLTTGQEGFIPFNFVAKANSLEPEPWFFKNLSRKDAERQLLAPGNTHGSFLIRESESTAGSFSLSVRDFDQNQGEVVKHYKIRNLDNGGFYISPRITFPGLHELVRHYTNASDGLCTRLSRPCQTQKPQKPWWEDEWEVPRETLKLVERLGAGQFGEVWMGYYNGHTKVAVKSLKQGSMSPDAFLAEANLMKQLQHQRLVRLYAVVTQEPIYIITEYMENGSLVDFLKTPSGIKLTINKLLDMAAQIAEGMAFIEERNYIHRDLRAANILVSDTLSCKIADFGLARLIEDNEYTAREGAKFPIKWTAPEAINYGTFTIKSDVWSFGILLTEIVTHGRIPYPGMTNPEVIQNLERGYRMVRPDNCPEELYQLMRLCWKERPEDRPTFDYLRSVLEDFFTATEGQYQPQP
UniProt P53667: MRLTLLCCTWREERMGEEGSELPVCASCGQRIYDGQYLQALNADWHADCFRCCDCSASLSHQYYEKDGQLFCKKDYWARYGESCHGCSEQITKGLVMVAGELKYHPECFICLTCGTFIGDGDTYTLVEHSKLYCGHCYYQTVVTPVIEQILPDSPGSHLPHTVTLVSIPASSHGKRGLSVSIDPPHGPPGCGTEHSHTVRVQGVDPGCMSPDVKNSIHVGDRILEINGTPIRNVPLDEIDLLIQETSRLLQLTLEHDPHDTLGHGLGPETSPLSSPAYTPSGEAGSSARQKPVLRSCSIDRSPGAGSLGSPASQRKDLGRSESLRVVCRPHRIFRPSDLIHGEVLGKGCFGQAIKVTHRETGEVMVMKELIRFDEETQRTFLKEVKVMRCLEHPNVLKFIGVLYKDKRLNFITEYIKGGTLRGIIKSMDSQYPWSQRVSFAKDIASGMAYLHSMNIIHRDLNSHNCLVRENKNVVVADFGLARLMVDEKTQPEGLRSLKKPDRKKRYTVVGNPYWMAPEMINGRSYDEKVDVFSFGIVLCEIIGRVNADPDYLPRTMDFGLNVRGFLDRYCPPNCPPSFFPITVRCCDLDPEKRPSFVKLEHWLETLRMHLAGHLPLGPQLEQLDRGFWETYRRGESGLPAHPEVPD
UniProt P53671: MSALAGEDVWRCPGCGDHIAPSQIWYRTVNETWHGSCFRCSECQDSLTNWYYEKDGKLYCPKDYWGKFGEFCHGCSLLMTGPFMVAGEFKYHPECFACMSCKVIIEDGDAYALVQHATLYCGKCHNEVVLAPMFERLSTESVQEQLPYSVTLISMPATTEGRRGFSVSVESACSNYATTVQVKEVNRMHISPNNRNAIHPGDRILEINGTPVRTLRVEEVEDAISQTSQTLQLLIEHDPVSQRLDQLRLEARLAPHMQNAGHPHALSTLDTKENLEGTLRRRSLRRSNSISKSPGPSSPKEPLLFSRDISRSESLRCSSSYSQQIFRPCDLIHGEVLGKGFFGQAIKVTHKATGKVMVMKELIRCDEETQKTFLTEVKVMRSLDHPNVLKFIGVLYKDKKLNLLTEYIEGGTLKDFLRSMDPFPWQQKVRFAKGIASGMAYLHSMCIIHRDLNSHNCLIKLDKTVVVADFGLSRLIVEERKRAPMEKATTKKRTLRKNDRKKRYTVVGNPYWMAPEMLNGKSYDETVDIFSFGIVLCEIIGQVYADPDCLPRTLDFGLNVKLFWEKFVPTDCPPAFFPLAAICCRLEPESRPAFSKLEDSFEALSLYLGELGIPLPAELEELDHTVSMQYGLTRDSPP
UniProt Q8IWU2: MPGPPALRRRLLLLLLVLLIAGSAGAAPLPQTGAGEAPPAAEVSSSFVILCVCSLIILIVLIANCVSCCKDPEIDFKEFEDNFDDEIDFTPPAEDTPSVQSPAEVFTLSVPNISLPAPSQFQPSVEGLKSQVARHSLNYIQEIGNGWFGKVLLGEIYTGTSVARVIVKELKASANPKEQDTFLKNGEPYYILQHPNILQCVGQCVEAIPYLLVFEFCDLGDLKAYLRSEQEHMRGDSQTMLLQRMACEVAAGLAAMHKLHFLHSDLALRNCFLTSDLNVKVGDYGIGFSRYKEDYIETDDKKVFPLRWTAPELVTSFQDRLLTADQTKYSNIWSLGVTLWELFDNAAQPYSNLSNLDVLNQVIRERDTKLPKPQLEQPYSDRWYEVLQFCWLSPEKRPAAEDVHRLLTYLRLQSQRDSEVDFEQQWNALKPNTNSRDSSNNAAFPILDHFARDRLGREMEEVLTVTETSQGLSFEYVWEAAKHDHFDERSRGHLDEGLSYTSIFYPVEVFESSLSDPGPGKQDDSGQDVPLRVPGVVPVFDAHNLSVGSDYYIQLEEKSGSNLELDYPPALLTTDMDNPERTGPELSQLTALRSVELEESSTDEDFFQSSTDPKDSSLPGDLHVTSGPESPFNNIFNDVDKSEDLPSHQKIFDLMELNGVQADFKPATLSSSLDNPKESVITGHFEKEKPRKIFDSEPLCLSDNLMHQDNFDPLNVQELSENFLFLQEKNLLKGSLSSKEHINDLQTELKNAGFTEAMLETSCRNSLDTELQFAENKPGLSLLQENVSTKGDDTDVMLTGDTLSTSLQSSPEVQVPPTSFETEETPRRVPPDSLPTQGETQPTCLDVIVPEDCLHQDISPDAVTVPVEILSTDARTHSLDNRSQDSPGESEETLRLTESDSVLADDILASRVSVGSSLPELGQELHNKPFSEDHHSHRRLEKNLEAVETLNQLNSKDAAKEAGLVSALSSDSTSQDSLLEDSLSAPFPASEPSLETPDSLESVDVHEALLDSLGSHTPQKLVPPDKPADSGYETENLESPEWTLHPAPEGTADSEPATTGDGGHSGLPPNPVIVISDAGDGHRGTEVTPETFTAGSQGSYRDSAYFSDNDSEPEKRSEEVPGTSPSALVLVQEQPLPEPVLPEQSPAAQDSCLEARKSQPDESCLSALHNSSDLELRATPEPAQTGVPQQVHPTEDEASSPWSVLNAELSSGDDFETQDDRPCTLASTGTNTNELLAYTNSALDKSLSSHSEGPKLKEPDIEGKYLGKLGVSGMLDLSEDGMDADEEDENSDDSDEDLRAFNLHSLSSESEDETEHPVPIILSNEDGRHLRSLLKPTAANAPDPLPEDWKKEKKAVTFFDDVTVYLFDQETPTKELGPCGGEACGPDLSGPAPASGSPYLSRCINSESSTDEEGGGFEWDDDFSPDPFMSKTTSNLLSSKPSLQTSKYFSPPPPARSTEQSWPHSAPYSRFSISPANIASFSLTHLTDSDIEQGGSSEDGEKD
UniProt P07948: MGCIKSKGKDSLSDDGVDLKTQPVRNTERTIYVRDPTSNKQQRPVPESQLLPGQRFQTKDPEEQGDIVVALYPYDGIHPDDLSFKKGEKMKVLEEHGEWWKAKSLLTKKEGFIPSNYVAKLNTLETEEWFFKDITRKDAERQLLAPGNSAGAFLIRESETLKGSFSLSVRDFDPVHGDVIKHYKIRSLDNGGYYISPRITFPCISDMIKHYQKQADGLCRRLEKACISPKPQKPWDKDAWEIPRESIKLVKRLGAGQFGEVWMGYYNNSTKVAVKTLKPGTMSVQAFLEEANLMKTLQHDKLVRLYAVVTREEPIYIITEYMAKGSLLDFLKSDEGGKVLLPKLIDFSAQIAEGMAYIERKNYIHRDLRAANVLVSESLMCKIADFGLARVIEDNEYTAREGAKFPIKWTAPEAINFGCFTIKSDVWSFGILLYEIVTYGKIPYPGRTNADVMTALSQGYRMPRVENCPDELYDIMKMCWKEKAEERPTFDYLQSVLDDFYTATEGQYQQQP
UniProt Q12851: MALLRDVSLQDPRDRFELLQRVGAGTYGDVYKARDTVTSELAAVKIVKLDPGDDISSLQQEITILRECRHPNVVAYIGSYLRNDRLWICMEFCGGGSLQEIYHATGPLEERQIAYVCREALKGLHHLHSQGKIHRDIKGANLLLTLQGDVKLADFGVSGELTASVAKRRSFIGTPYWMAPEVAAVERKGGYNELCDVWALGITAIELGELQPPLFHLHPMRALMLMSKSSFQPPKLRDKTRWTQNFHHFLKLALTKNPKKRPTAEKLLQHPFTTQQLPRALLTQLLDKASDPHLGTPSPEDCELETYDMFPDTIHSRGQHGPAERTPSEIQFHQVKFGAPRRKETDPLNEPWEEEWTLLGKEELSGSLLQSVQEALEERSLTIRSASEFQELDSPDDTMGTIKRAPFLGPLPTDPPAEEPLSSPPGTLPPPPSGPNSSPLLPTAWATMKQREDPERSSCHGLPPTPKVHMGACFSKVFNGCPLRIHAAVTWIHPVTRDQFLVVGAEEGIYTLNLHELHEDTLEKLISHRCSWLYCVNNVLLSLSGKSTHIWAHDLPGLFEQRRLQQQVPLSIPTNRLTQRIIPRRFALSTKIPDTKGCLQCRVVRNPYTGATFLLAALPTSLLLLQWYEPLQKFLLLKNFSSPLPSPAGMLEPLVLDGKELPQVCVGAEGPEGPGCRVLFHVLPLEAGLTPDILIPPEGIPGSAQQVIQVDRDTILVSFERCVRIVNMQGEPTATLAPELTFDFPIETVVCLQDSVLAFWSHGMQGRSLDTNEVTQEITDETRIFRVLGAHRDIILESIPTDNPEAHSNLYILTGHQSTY

How the values were obtained:
Assay in all cases: kinase-Nluc reporter destabilization hit call (1 = scored as downregulated) (binary); higher = compound decreases kinase abundance
Conditions in all cases: K562; 2-18 h
IRAK3 = IRAK3 (UniProt Q9Y616)
JAK1 = JAK1 (UniProt P23458)
LCK = LCK (UniProt P06239)
LIMK1 = LIMK1 (UniProt P53667)
LIMK2 = LIMK2 (UniProt P53671)
LMTK2 = LMTK2 (UniProt Q8IWU2)
LYN = LYN (UniProt P07948)
MAP2K1 = MAP2K1 (UniProt Q02750)
MAP2K2 = MAP2K2 (UniProt P36507)
MAP4K2 = MAP4K2 (UniProt Q12851)

Measured: kinase-Nluc reporter destabilization hit call

CN1CC[C@@H](c2c(O)cc(O)c3c(=O)cc(-c4ccc(C(F)(F)F)cc4Cl)oc23)[C@@H]1CO [Voruciclib (hydrochloride)] (10 µM)
inactive: IRAK3 = 0 | JAK1 = 0 | LCK 0 | LIMK1 = 0 | LIMK2 = 0 | LMTK2 = 0 | LYN 0 | MAP2K1 = 0 | MAP2K2 = 0 | MAP4K2 = 0

Nc1cccc(-c2cc3c(Oc4cccc(O)c4)ncnc3[nH]2)c1 (10 µM)
inactive: IRAK3 = 0 | JAK1 = 0 | LCK 0 | LIMK1 = 0 | LIMK2 = 0 | LMTK2 = 0 | LYN 0 | MAP2K1 = 0 | MAP2K2 = 0 | MAP4K2 = 0

C=CC(=O)Nc1cccc(-c2cccc3cnc(Nc4ccc(N5CCN(CCO)CC5)c(F)c4F)nc23)c1 [Olafertinib] (2.5 µM)
inactive: IRAK3 = 0 | JAK1 = 0 | LCK 0 | LIMK1 = 0 | LIMK2 = 0 | LMTK2 = 0 | LYN 0 | MAP2K1 = 0 | MAP2K2 = 0 | MAP4K2 = 0

C=CCc1ccc(O)c(-c2ccc(O)c(CC=C)c2)c1 [Honokiol] (10 µM)
inactive: IRAK3 = 0 | JAK1 = 0 | LCK 0 | LIMK1 = 0 | LIMK2 = 0 | LMTK2 = 0 | LYN 0 | MAP2K1 = 0 | MAP2K2 = 0 | MAP4K2 = 0

COc1cc2ncnc(-n3nc(-c4ccccn4)nc3N)c2cc1OC (10 µM)
inactive: IRAK3 = 0 | JAK1 = 0 | LCK 0 | LIMK1 = 0 | LIMK2 = 0 | LMTK2 = 0 | LYN 0 | MAP2K1 = 0 | MAP2K2 = 0 | MAP4K2 = 0

COc1ccccc1C(=O)/C=C/c1ccccc1C(=O)O (10 µM)
inactive: IRAK3 = 0 | JAK1 = 0 | LCK 0 | LIMK1 = 0 | LIMK2 = 0 | LMTK2 = 0 | LYN 0 | MAP2K1 = 0 | MAP2K2 = 0 | MAP4K2 = 0

CC/C(=N\NC(=O)c1ccnc(NCCCN2CCOCC2)c1)c1ccc(Cl)cc1O (2.5 µM)
inactive: IRAK3 = 0 | JAK1 = 0 | LCK 0 | LIMK1 = 0 | LIMK2 = 0 | LMTK2 = 0 | LYN 0 | MAP2K1 = 0 | MAP2K2 = 0 | MAP4K2 = 0

Oc1cc(O)c2c(c1)OC1(c3ccc(O)c(O)c3)Oc3cc(O)c4c(c3C2C1O)OC(c1ccc(O)c(O)c1)C(O)C4 (stereo not given) [Procyanidin A1] (10 µM)
inactive: IRAK3 = 0 | JAK1 = 0 | LCK 0 | LIMK1 = 0 | LIMK2 = 0 | LMTK2 = 0 | LYN 0 | MAP2K1 = 0 | MAP2K2 = 0 | MAP4K2 = 0

C[C@@H]1CCNC(=O)c2cc3ccc(C(=O)Nc4nc5ccccc5n4CCCN(C)C)cc3n21 (10 µM)
inactive: IRAK3 = 0 | JAK1 = 0 | LCK 0 | LIMK1 = 0 | LIMK2 = 0 | LMTK2 = 0 | LYN 0 | MAP2K1 = 0 | MAP2K2 = 0 | MAP4K2 = 0

Cc1ccc(NC(=O)c2ccc(CN(CCN(C)C)C(=O)c3cccnc3)cc2)cc1Nc1nccc(-c2cccnc2)n1 [PDGFRα kinase inhibitor 1] (10 µM)
inactive: IRAK3 = 0 | JAK1 = 0 | LCK 0 | LIMK1 = 0 | LIMK2 = 0 | LMTK2 = 0 | LYN 0 | MAP2K1 = 0 | MAP2K2 = 0 | MAP4K2 = 0

C=CC(=O)Nc1cccc(CNc2nc(Nc3ccc(N4CCN(C)CC4)cc3OC)ncc2Cl)c1 (10 µM)
inactive: IRAK3 = 0 | JAK1 = 0 | LCK 0 | LIMK1 = 0 | LIMK2 = 0 | LMTK2 = 0 | LYN 0 | MAP2K1 = 0 | MAP2K2 = 0 | MAP4K2 = 0

CC(C)(C[C@H](N)C(=O)O)C(F)F [NV-5138 (hydrochloride)] (10 µM)
inactive: IRAK3 = 0 | JAK1 = 0 | LCK 0 | LIMK1 = 0 | LIMK2 = 0 | LMTK2 = 0 | LYN 0 | MAP2K1 = 0 | MAP2K2 = 0 | MAP4K2 = 0

N#Cc1c2nc3ccccc3nc2n2ccc(NC(=O)c3cccs3)cc12 (10 µM)
inactive: IRAK3 = 0 | JAK1 = 0 | LCK 0 | LIMK1 = 0 | LIMK2 = 0 | LMTK2 = 0 | LYN 0 | MAP2K1 = 0 | MAP2K2 = 0 | MAP4K2 = 0

C=CC(=O)Nc1cc(Nc2nccc(-n3cc(CN(C)C)c(-c4ccccc4)n3)n2)c(OC)cc1N1CCOCC1 [Lazertinib] (10 µM)
inactive: IRAK3 = 0 | JAK1 = 0 | LCK 0 | LIMK1 = 0 | LIMK2 = 0 | LMTK2 = 0 | LYN 0 | MAP2K1 = 0 | MAP2K2 = 0 | MAP4K2 = 0

CC(C)CCNC(=O)c1ccc2c(c1)nc(Nc1n[nH]c3ccc(-c4ccccc4OC(F)(F)F)cc13)n2C1CCC(O)CC1 (stereo not drawn) [IRAK inhibitor 4 (trans)] (10 µM)
inactive: IRAK3 = 0 | JAK1 = 0 | LCK 0 | LIMK1 = 0 | LIMK2 = 0 | LMTK2 = 0 | LYN 0 | MAP2K1 = 0 | MAP2K2 = 0 | MAP4K2 = 0

Nc1n[nH]c2nc(-c3ccc(NS(=O)(=O)c4cc(Cl)ccc4F)cc3)cnc12 (10 µM)
inactive: IRAK3 = 0 | JAK1 = 0 | LCK 0 | LIMK1 = 0 | LIMK2 = 0 | LMTK2 = 0 | LYN 0 | MAP2K1 = 0 | MAP2K2 = 0 | MAP4K2 = 0

NC(=O)c1cnc2[nH]ccc2c1N[C@@H]1[C@@H]2CC3C[C@H]1C[C@@](O)(C3)C2 [Peficitinib] (10 µM)
inactive: IRAK3 = 0 | JAK1 = 0 | LCK 0 | LIMK1 = 0 | LIMK2 = 0 | LMTK2 = 0 | LYN 0 | MAP2K1 = 0 | MAP2K2 = 0 | MAP4K2 = 0

CC(C)N1CCN(c2ccc(Nc3ncc4cc5n(c4n3)C3(CCCCC3)CNC5=O)nc2)CC1 [Lerociclib (dihydrochloride)] (2 µM)
inactive: IRAK3 = 0 | JAK1 = 0 | LCK 0 | LIMK1 = 0 | LIMK2 = 0 | LMTK2 = 0 | LYN 0 | MAP2K1 = 0 | MAP2K2 = 0 | MAP4K2 = 0

O=C(Nc1cccc(Nc2ncc(Br)c(NCCc3cnc[nH]3)n2)c1)N1CCCC1 (10 µM)
inactive: IRAK3 = 0 | JAK1 = 0 | LCK 0 | LIMK1 = 0 | LIMK2 = 0 | LMTK2 = 0 | LYN 0 | MAP2K1 = 0 | MAP2K2 = 0 | MAP4K2 = 0

CNC(=O)c1cc2c(Oc3ccc(NC(=S)NC(=O)Cc4ccccc4)cc3F)ccnc2cc1OC [TAS-115 mesylate] (10 µM)
inactive: IRAK3 = 0 | JAK1 = 0 | LCK 0 | LIMK1 = 0 | LIMK2 = 0 | LMTK2 = 0 | LYN 0 | MAP2K1 = 0 | MAP2K2 = 0 | MAP4K2 = 0

Cn1cc(-c2c[nH]c3ncnc(N4CCOCC4)c23)cc1C#N (10 µM)
inactive: IRAK3 = 0 | JAK1 = 0 | LCK 0 | LIMK1 = 0 | LIMK2 = 0 | LMTK2 = 0 | LYN 0 | MAP2K1 = 0 | MAP2K2 = 0 | MAP4K2 = 0

COc1cc(-c2cn[nH]c2)ccc1C(=O)Nc1ccc2c(c1)CCNCC2 (10 µM)
inactive: IRAK3 = 0 | JAK1 = 0 | LCK 0 | LIMK1 = 0 | LIMK2 = 0 | LMTK2 = 0 | LYN 0 | MAP2K1 = 0 | MAP2K2 = 0 | MAP4K2 = 0

c1ccc(-c2nc3c(c(-n4ccc5cnccc54)n2)CCC3)nc1 (10 µM)
inactive: IRAK3 = 0 | JAK1 = 0 | LCK 0 | LIMK1 = 0 | LIMK2 = 0 | LMTK2 = 0 | LYN 0 | MAP2K1 = 0 | MAP2K2 = 0 | MAP4K2 = 0

Cn1cc2cc(C(F)(F)c3nnc4ccc(-c5cnn(C6CC6)c5)nn34)c(F)cc2n1 [Bozitinib] (10 µM)
inactive: IRAK3 = 0 | JAK1 = 0 | LCK 0 | LIMK1 = 0 | LIMK2 = 0 | LMTK2 = 0 | LYN 0 | MAP2K1 = 0 | MAP2K2 = 0 | MAP4K2 = 0

O=[N+]([O-])c1ccc(Nc2nc(N3CCOCC3)nc(N3CCOCC3)n2)cc1 (10 µM)
inactive: IRAK3 = 0 | JAK1 = 0 | LCK 0 | LIMK1 = 0 | LIMK2 = 0 | LMTK2 = 0 | LYN 0 | MAP2K1 = 0 | MAP2K2 = 0 | MAP4K2 = 0

C[C@H](Nc1ncnc2[nH]cnc12)c1cc2ccc(F)cc2nc1-c1ccccn1 (10 µM)
inactive: IRAK3 = 0 | JAK1 = 0 | LCK 0 | LIMK1 = 0 | LIMK2 = 0 | LMTK2 = 0 | LYN 0 | MAP2K1 = 0 | MAP2K2 = 0 | MAP4K2 = 0

O=c1[nH]c(C2CCCN2)nc2c1oc1ccc(Cl)cc12 (stereo not given) [XL413 (hydrochloride)] (10 µM)
inactive: IRAK3 = 0 | JAK1 = 0 | LCK 0 | LIMK1 = 0 | LIMK2 = 0 | LMTK2 = 0 | LYN 0 | MAP2K1 = 0 | MAP2K2 = 0 | MAP4K2 = 0

COCCNc1cc(NC(=O)N2CCCc3cc(CN4CCN(C)CC4=O)c(C=O)nc32)ncc1C#N [Roblitinib] (10 µM)
inactive: IRAK3 = 0 | JAK1 = 0 | LCK 0 | LIMK1 = 0 | LIMK2 = 0 | LMTK2 = 0 | LYN 0 | MAP2K1 = 0 | MAP2K2 = 0 | MAP4K2 = 0

O=C(O)c1cccc(CN2C(=O)/C(=C(\c3ccccc3)c3ccc(Cl)cc3)c3ccccc32)c1 (2.5 µM)
inactive: IRAK3 = 0 | JAK1 = 0 | LCK 0 | LIMK1 = 0 | LIMK2 = 0 | LMTK2 = 0 | LYN 0 | MAP2K1 = 0 | MAP2K2 = 0 | MAP4K2 = 0

Of the compounds above, 6 have an aryl methoxy group:
COc1cc2ncnc(-n3nc(-c4ccccn4)nc3N)c2cc1OC (10 µM)
inactive: IRAK3 = 0 | JAK1 = 0 | LCK 0 | LIMK1 = 0 | LIMK2 = 0 | LMTK2 = 0 | LYN 0 | MAP2K1 = 0 | MAP2K2 = 0 | MAP4K2 = 0

COc1ccccc1C(=O)/C=C/c1ccccc1C(=O)O (10 µM)
inactive: IRAK3 = 0 | JAK1 = 0 | LCK 0 | LIMK1 = 0 | LIMK2 = 0 | LMTK2 = 0 | LYN 0 | MAP2K1 = 0 | MAP2K2 = 0 | MAP4K2 = 0

C=CC(=O)Nc1cccc(CNc2nc(Nc3ccc(N4CCN(C)CC4)cc3OC)ncc2Cl)c1 (10 µM)
inactive: IRAK3 = 0 | JAK1 = 0 | LCK 0 | LIMK1 = 0 | LIMK2 = 0 | LMTK2 = 0 | LYN 0 | MAP2K1 = 0 | MAP2K2 = 0 | MAP4K2 = 0

C=CC(=O)Nc1cc(Nc2nccc(-n3cc(CN(C)C)c(-c4ccccc4)n3)n2)c(OC)cc1N1CCOCC1 [Lazertinib] (10 µM)
inactive: IRAK3 = 0 | JAK1 = 0 | LCK 0 | LIMK1 = 0 | LIMK2 = 0 | LMTK2 = 0 | LYN 0 | MAP2K1 = 0 | MAP2K2 = 0 | MAP4K2 = 0

CNC(=O)c1cc2c(Oc3ccc(NC(=S)NC(=O)Cc4ccccc4)cc3F)ccnc2cc1OC [TAS-115 mesylate] (10 µM)
inactive: IRAK3 = 0 | JAK1 = 0 | LCK 0 | LIMK1 = 0 | LIMK2 = 0 | LMTK2 = 0 | LYN 0 | MAP2K1 = 0 | MAP2K2 = 0 | MAP4K2 = 0

COc1cc(-c2cn[nH]c2)ccc1C(=O)Nc1ccc2c(c1)CCNCC2 (10 µM)
inactive: IRAK3 = 0 | JAK1 = 0 | LCK 0 | LIMK1 = 0 | LIMK2 = 0 | LMTK2 = 0 | LYN 0 | MAP2K1 = 0 | MAP2K2 = 0 | MAP4K2 = 0

Next entries:

Cn1cc(C2=C(c3cn(CCCSC(=N)N)c4ccccc34)C(=O)NC2=O)c2ccccc21 [Ro 31-8220 (mesylate)] (2.5 µM)
inactive: IRAK3 = 0 | JAK1 = 0 | LCK 0 | LIMK1 = 0 | LIMK2 = 0 | LMTK2 = 0 | LYN 0 | MAP2K1 = 0 | MAP2K2 = 0 | MAP4K2 = 0
